# Counter-ions that a name gives are not always drawn. The list shows a part of the results. This data set is noisy: repeats of one test often differ as much as different tests do.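 A screen tested FDA-approved drugs combined with one-eighth-MIC colistin against a clinical mcr-1-positive, multidrug-resistant E. coli isolate, measuring OD600 at 24 h. Controls were untreated bacteria (growth) and broth alone (blank). An OD600 under 0.2 marked a combination as active.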
# System: Escherichia coli 42 (mcr-1-positive clinical isolate)
# Assay: OD600 after 24 h growth with compound plus colistin (absorbance units (OD600)); higher = more bacterial growth (less inhibition)
# Details: first compound 25 µM; colistin concentration 0.5 ug/mL; incubation time 24 h; 37 °C
row,SMILES,OD600
1,CN(C/C=C/c1ccccc1)Cc1cccc2ccccc12 [Naftifine hydrochloride] + CCC(C)CCCC(=O)N[C@@H](CCN)C(=O)N[C@H](C(=O)N[C@@H](CCN)C(=O)N[C@H]1CCNC(=O)[C@H]([C@@H](C)O)NC(=O)[C@H](CCN)NC(=O)[C@H](CCN)NC(=O)[C@H](CC(C)C)NC(=O)[C@@H](CC(C)C)NC(=O)[C@H](CCN)NC1=O)[C@@H](C)O [colistin],inactive: 1.07
2,CC(=O)[C@@]1(O)CC[C@H]2[C@@H]3CCC4=CC(=O)CC[C@]4(C)[C@H]3CC[C@@]21C [17α-Hydroxyprogesterone] + CCC(C)CCCC(=O)N[C@@H](CCN)C(=O)N[C@H](C(=O)N[C@@H](CCN)C(=O)N[C@H]1CCNC(=O)[C@H]([C@@H](C)O)NC(=O)[C@H](CCN)NC(=O)[C@H](CCN)NC(=O)[C@H](CC(C)C)NC(=O)[C@@H](CC(C)C)NC(=O)[C@H](CCN)NC1=O)[C@@H](C)O [colistin],inactive: 1.13
3,CC(C)(C#N)c1cc(Cn2cncn2)cc(C(C)(C)C#N)c1 [Anastrozole] + CCC(C)CCCC(=O)N[C@@H](CCN)C(=O)N[C@H](C(=O)N[C@@H](CCN)C(=O)N[C@H]1CCNC(=O)[C@H]([C@@H](C)O)NC(=O)[C@H](CCN)NC(=O)[C@H](CCN)NC(=O)[C@H](CC(C)C)NC(=O)[C@@H](CC(C)C)NC(=O)[C@H](CCN)NC1=O)[C@@H](C)O [colistin],inactive: 1.18
4,N=C(NCCCCCCNC(=N)NC(=N)Nc1ccc(Cl)cc1)NC(=N)Nc1ccc(Cl)cc1 [Chlorhexidine dihydrochloride] + CCC(C)CCCC(=O)N[C@@H](CCN)C(=O)N[C@H](C(=O)N[C@@H](CCN)C(=O)N[C@H]1CCNC(=O)[C@H]([C@@H](C)O)NC(=O)[C@H](CCN)NC(=O)[C@H](CCN)NC(=O)[C@H](CC(C)C)NC(=O)[C@@H](CC(C)C)NC(=O)[C@H](CCN)NC1=O)[C@@H](C)O [colistin],active: 0.039
5,COC(=O)[C@@H]1CC2=CC(=O)CC[C@]2(C)[C@@]23O[C@@H]2C[C@@]2(C)[C@@H](CC[C@@]24CCC(=O)O4)[C@H]13 [Eplerenone] + CCC(C)CCCC(=O)N[C@@H](CCN)C(=O)N[C@H](C(=O)N[C@@H](CCN)C(=O)N[C@H]1CCNC(=O)[C@H]([C@@H](C)O)NC(=O)[C@H](CCN)NC(=O)[C@H](CCN)NC(=O)[C@H](CC(C)C)NC(=O)[C@@H](CC(C)C)NC(=O)[C@H](CCN)NC1=O)[C@@H](C)O [colistin],inactive: 1.06
6,CO[C@H]1O[C@@H]2O[C@@]3(C)CC[C@H]4[C@H](C)CC[C@@H]([C@H]1C)[C@@]24OO3 [Artemether] + CCC(C)CCCC(=O)N[C@@H](CCN)C(=O)N[C@H](C(=O)N[C@@H](CCN)C(=O)N[C@H]1CCNC(=O)[C@H]([C@@H](C)O)NC(=O)[C@H](CCN)NC(=O)[C@H](CCN)NC(=O)[C@H](CC(C)C)NC(=O)[C@@H](CC(C)C)NC(=O)[C@H](CCN)NC1=O)[C@@H](C)O [colistin],active: 0.039
7,CNC(=O)c1ccc(N2C(=S)N(c3cnc(C#N)c(C(F)(F)F)c3)C(=O)C23CCC3)cc1F [Apalutamide] + CCC(C)CCCC(=O)N[C@@H](CCN)C(=O)N[C@H](C(=O)N[C@@H](CCN)C(=O)N[C@H]1CCNC(=O)[C@H]([C@@H](C)O)NC(=O)[C@H](CCN)NC(=O)[C@H](CCN)NC(=O)[C@H](CC(C)C)NC(=O)[C@@H](CC(C)C)NC(=O)[C@H](CCN)NC1=O)[C@@H](C)O [colistin],inactive: 0.841
8,COc1ccc(CNc2nc(N3CCC[C@H]3CO)ncc2C(=O)NCc2ncccn2)cc1Cl [Avanafil] + CCC(C)CCCC(=O)N[C@@H](CCN)C(=O)N[C@H](C(=O)N[C@@H](CCN)C(=O)N[C@H]1CCNC(=O)[C@H]([C@@H](C)O)NC(=O)[C@H](CCN)NC(=O)[C@H](CCN)NC(=O)[C@H](CC(C)C)NC(=O)[C@@H](CC(C)C)NC(=O)[C@H](CCN)NC1=O)[C@@H](C)O [colistin],inactive: 0.934
9,CNCCC(Oc1ccc(C(F)(F)F)cc1)c1ccccc1 (centres undefined) [Fluoxetine hydrochloride] + CCC(C)CCCC(=O)N[C@@H](CCN)C(=O)N[C@H](C(=O)N[C@@H](CCN)C(=O)N[C@H]1CCNC(=O)[C@H]([C@@H](C)O)NC(=O)[C@H](CCN)NC(=O)[C@H](CCN)NC(=O)[C@H](CC(C)C)NC(=O)[C@@H](CC(C)C)NC(=O)[C@H](CCN)NC1=O)[C@@H](C)O [colistin],inactive: 1.21
10,C[C@@H]1CCN(C(=O)CC#N)C[C@@H]1N(C)c1ncnc2[nH]ccc12 [Tofacitinib Citrate] + CCC(C)CCCC(=O)N[C@@H](CCN)C(=O)N[C@H](C(=O)N[C@@H](CCN)C(=O)N[C@H]1CCNC(=O)[C@H]([C@@H](C)O)NC(=O)[C@H](CCN)NC(=O)[C@H](CCN)NC(=O)[C@H](CC(C)C)NC(=O)[C@@H](CC(C)C)NC(=O)[C@H](CCN)NC1=O)[C@@H](C)O [colistin],inactive: 0.901
11,COc1ccccc1OCC(O)CN1CCN(CC(=O)Nc2c(C)cccc2C)CC1 (centres undefined) [Ranolazine dihydrochloride] + CCC(C)CCCC(=O)N[C@@H](CCN)C(=O)N[C@H](C(=O)N[C@@H](CCN)C(=O)N[C@H]1CCNC(=O)[C@H]([C@@H](C)O)NC(=O)[C@H](CCN)NC(=O)[C@H](CCN)NC(=O)[C@H](CC(C)C)NC(=O)[C@@H](CC(C)C)NC(=O)[C@H](CCN)NC1=O)[C@@H](C)O [colistin],inactive: 1.07
12,C[C@@H]1C[C@H]2[C@@H]3C[C@H](F)C4=CC(=O)C=C[C@]4(C)[C@@]3(F)[C@@H](O)C[C@]2(C)[C@@]1(O)C(=O)CO [Flumethasone] + CCC(C)CCCC(=O)N[C@@H](CCN)C(=O)N[C@H](C(=O)N[C@@H](CCN)C(=O)N[C@H]1CCNC(=O)[C@H]([C@@H](C)O)NC(=O)[C@H](CCN)NC(=O)[C@H](CCN)NC(=O)[C@H](CC(C)C)NC(=O)[C@@H](CC(C)C)NC(=O)[C@H](CCN)NC1=O)[C@@H](C)O [colistin],inactive: 1.18
13,CCOc1nc2cccc(C(=O)OC(C)OC(=O)OC3CCCCC3)c2n1Cc1ccc(-c2ccccc2-c2nn[nH]n2)cc1 (centres undefined) [Candesartan Cilexetil] + CCC(C)CCCC(=O)N[C@@H](CCN)C(=O)N[C@H](C(=O)N[C@@H](CCN)C(=O)N[C@H]1CCNC(=O)[C@H]([C@@H](C)O)NC(=O)[C@H](CCN)NC(=O)[C@H](CCN)NC(=O)[C@H](CC(C)C)NC(=O)[C@@H](CC(C)C)NC(=O)[C@H](CCN)NC1=O)[C@@H](C)O [colistin],inactive: 1.13
14,COC(=O)[C@H](c1ccccc1Cl)N1CCc2sccc2C1 [Clopidogrel hydrogen sulfate] + CCC(C)CCCC(=O)N[C@@H](CCN)C(=O)N[C@H](C(=O)N[C@@H](CCN)C(=O)N[C@H]1CCNC(=O)[C@H]([C@@H](C)O)NC(=O)[C@H](CCN)NC(=O)[C@H](CCN)NC(=O)[C@H](CC(C)C)NC(=O)[C@@H](CC(C)C)NC(=O)[C@H](CCN)NC1=O)[C@@H](C)O [colistin],inactive: 0.888
15,CN1CCc2nc(C(=O)N[C@@H]3C[C@@H](C(=O)N(C)C)CC[C@@H]3NC(=O)C(=O)Nc3ccc(Cl)cn3)sc2C1 [Edoxaban Tosylate Monohydrate] + CCC(C)CCCC(=O)N[C@@H](CCN)C(=O)N[C@H](C(=O)N[C@@H](CCN)C(=O)N[C@H]1CCNC(=O)[C@H]([C@@H](C)O)NC(=O)[C@H](CCN)NC(=O)[C@H](CCN)NC(=O)[C@H](CC(C)C)NC(=O)[C@@H](CC(C)C)NC(=O)[C@H](CCN)NC1=O)[C@@H](C)O [colistin],inactive: 0.975
16,CNCCCC12CCC(c3ccccc31)c1ccccc12 [Maprotiline hydrochloride] + CCC(C)CCCC(=O)N[C@@H](CCN)C(=O)N[C@H](C(=O)N[C@@H](CCN)C(=O)N[C@H]1CCNC(=O)[C@H]([C@@H](C)O)NC(=O)[C@H](CCN)NC(=O)[C@H](CCN)NC(=O)[C@H](CC(C)C)NC(=O)[C@@H](CC(C)C)NC(=O)[C@H](CCN)NC1=O)[C@@H](C)O [colistin],inactive: 1.06
17,CNCC(O)c1ccc(O)c(O)c1 (racemic) [DL-Adrenaline Hydrochloride] + CCC(C)CCCC(=O)N[C@@H](CCN)C(=O)N[C@H](C(=O)N[C@@H](CCN)C(=O)N[C@H]1CCNC(=O)[C@H]([C@@H](C)O)NC(=O)[C@H](CCN)NC(=O)[C@H](CCN)NC(=O)[C@H](CC(C)C)NC(=O)[C@@H](CC(C)C)NC(=O)[C@H](CCN)NC1=O)[C@@H](C)O [colistin],inactive: 1.29
18,CCC1(C)CC(=O)NC1=O (centres undefined) [Ethosuximide] + CCC(C)CCCC(=O)N[C@@H](CCN)C(=O)N[C@H](C(=O)N[C@@H](CCN)C(=O)N[C@H]1CCNC(=O)[C@H]([C@@H](C)O)NC(=O)[C@H](CCN)NC(=O)[C@H](CCN)NC(=O)[C@H](CC(C)C)NC(=O)[C@@H](CC(C)C)NC(=O)[C@H](CCN)NC1=O)[C@@H](C)O [colistin],inactive: 0.961
19,O=C(O)c1cccnc1 [Niacin] + CCC(C)CCCC(=O)N[C@@H](CCN)C(=O)N[C@H](C(=O)N[C@@H](CCN)C(=O)N[C@H]1CCNC(=O)[C@H]([C@@H](C)O)NC(=O)[C@H](CCN)NC(=O)[C@H](CCN)NC(=O)[C@H](CC(C)C)NC(=O)[C@@H](CC(C)C)NC(=O)[C@H](CCN)NC1=O)[C@@H](C)O [colistin],inactive: 1.12

# Look-ups from the results shown:
# Entry for CC(C)(C#N)c1cc(Cn2cncn2)cc(C(C)(C)C#N)c1 [Anastrozole] + CCC(C)CCCC(=O)N[C@@H](CCN)C(=O)N[C@H](C(=O)N[C@@H](CCN)C(=O)N[C@H]1CCNC(=O)[C@H]([C@@H](C)O)NC(=O)[C@H](CCN)NC(=O)[C@H](CCN)NC(=O)[C@H](CC(C)C)NC(=O)[C@@H](CC(C)C)NC(=O)[C@H](CCN)NC1=O)[C@@H](C)O [colistin] under OD600: inactive: 1.18
# Entry for CCC1(C)CC(=O)NC1=O (centres undefined) [Ethosuximide] + CCC(C)CCCC(=O)N[C@@H](CCN)C(=O)N[C@H](C(=O)N[C@@H](CCN)C(=O)N[C@H]1CCNC(=O)[C@H]([C@@H](C)O)NC(=O)[C@H](CCN)NC(=O)[C@H](CCN)NC(=O)[C@H](CC(C)C)NC(=O)[C@@H](CC(C)C)NC(=O)[C@H](CCN)NC1=O)[C@@H](C)O [colistin] under OD600: inactive: 0.961
